Test results: PubChem BioAssay AID1508600 (Functional Genomics Laboratory (NCATS/FGL), 2020)
The whole screen tested about 53,000 sequences, of which about 3,700 (7%) were called active.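 How the source made its calls: active means gene knockdowns whose robust z-score for IL-1 alpha signal is at least 2 or at most -2, so actives lie on both sides; inactive means the rest.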 The list shows a part of the results.

Assay: Components of the Cytosolic LPS Sensing Pathway: Gene Identification via Genome-wide siRNA Screen;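 further: robust z of the log signal after scaling to non-targeting control siRNA wells of the plate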
Details: RAW264.7 macrophages, IL-1a HTRF, actives lie on both sides, screened at 100 nM (by protocol), cells primed 5 h with Pam3CSK4 first
Method in brief: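 IL-1a HTRF of supernatants after 24 hour LipidA transfection of Pam3CSK4-primed (5 hours) RAW264.7 cells, 48h post-siRNA transfection (100 nM). Scores: percent of plate negative-control median, then log-based robust z-score.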

| Sequence | z-score |
| --- | --- |
| GGACAGUUUUAAAGAAGAATT against Tstd2 | inactive: 1.05 |
| GGGUAUUUCCACUUCAUAGTT against Acsm2 | inactive: 1.59 |
| GGUCUUGCUGUUCGAAGAATT against Gsx1 | inactive: 0.417 |
| GCCGUACCAUGUAAUGCCATT against Naa60 | active: -2.05 |
| GCUGCUAUAUCUGAAAACATT against Wee2 | inactive: -0.644 |
| GGCCGAGACUUCUCUUUUATT against Grin2c | inactive: 0.803 |
| GGAUCCAACAAAUGUUAUUTT against Ccdc92 | active: 2.06 |
| GGAAUAAGGAAGUUAUUGGTT against Olfr706 | inactive: -0.356 |
| GGGAAGAACUUCAAGCUUGTT against Ptk2b | inactive: 0.668 |
| GGAUGGAGGAAGACUCGAUTT against Etv6 | active: 2.14 |
| GGGAGCUGUUCUAUGAAGATT against Fhl3 | inactive: 0.00952 |
| GGACAUGUCUUCCCUGAAUTT against Hgs | inactive: -1.66 |
| GGACCUCGAUACAAUGGUCTT against Gkn1 | inactive: -0.257 |
| GGACAACUUCUUCAUUGAGTT against Slc8a2 | inactive: -0.334 |
| GGAGUGCCUUUAGACAUGCTT against Tbpl2 | inactive: 0.306 |
| AACGUAAUUAGCGUGAAUUTT against Cyp2j11 | inactive: 0.337 |
| GCACAUUCAACUUUGACCATT against Castor1 | inactive: -1.99 |
| GGCCCUGGUUUCAUUAGGATT against Gab3 | inactive: -1.05 |
| GGGUCUUGCCUACUUGCAUTT against Map4k5 | inactive: -1.98 |
| CCUGGUACAAGAGGAGUUUTT against Myg1 | inactive: 1.18 |
| CCCAGCUCUUAUGUUUACCTT against Ap4b1 | inactive: -0.399 |
| GGAGCUUUCUCAAGAUUCATT against Arid1a | inactive: 0.263 |

| Sequence | z-score |
| --- | --- |
| GGUGCAGUUGAAAGAACUCTT against Hoxa13 | inactive: 0.501 |
| GGCCCAGUUGAUCAGCUAUTT against Syne4 | inactive: 0.411 |
| GCCCUGAUGGACGAAUGAUTT against Dcaf10 | inactive: -0.555 |
| GGACUUUUUCAAAGGUUUUTT against Eif4g3 | active: 2.37 |
| GGAAUUUCACCUAAAUUGATT against Blzf1 | inactive: -1.06 |
| GCUGUGAACCUAGAGCGUGTT against Taco1 | inactive: -0.241 |
| GGAAUCGCUAUUUCUGAUATT against Sgk3 | inactive: 0.192 |
| GGUAUGACUUGCUCUUUAUTT against Rnpep | inactive: -0.881 |
| GGACAGCCGUGUAGUAACCTT against Cpne1 | inactive: -0.421 |
| GCUCUUCCGAUUAAUGCAGTT against Gabra6 | active: 2.87 |
| GGCUGGUGUAAAAGACACGTT against Nat14 | inactive: 0.142 |
| CCGGAGAUGUAAAUGCAAATT against Arl4d | inactive: 1.55 |
| GCGAUUACACCACAAACCATT against Cth | inactive: -1.67 |
| GGAUCUUUACAUCUCUAACTT against Krtap31-1 | inactive: 1.58 |
| GGCUUGGACAAUCUUAGUATT against Epdr1 | inactive: 0.0196 |
| CGGCCAACUUGCUCAAUGATT against Cnnm2 | inactive: 0.0888 |
| GGAGGUUGGGAUGAAUUAUTT against Rab6b | active: 4.26 |
| GAUUGGCAAUUGUGGCCAUTT against Defb4 | inactive: 1.1 |
| GCUAACUGAUACAUUAGAATT against Trim59 | inactive: 0.972 |
| GGCAGACAAUGCAGUUAACTT against Atp8a2 | inactive: 1.01 |
| GGUGCUGUCCAUGGUGAAGTT against St8sia5 | inactive: -1.33 |
| GGGCUUGUCUAGCCAUGCATT against Wiz | inactive: -1.13 |

An excerpt from the list above, as a working copy:

| Sequence | z-score |
| --- | --- |
| GGACAGCCGUGUAGUAACCTT against Cpne1 | inactive: -0.421 |
| GCUCUUCCGAUUAAUGCAGTT against Gabra6 | active: 2.87 |

Remaining list, next part:

| Sequence | z-score |
| --- | --- |
| GGAACUUUAUAGUUAGUGCTT against Srsf6 | inactive: -0.176 |
| GCUAACCAUAAGUCUGUUUTT against Trim16 | inactive: 1.16 |
| GGCAGUUUUGGGAUUGUUUTT against E4f1 | inactive: 0.627 |
| GGACUUCAUAUUAGCAUGUTT against Plbd2 | inactive: -1.27 |
| CCCAAUACAUAUGUUAAGUTT against Syt14 | inactive: 0.623 |
| GAGAACUGCUACGACUCUGTT against Coro2a | inactive: 1.43 |
| GGGAGAUUCUAUGAGGACUTT against Depdc5 | inactive: -0.0963 |
| CACGCAGAUGAUUAAGUUGTT against Olfr1000 | inactive: 1.25 |
| CCUUGCCAAGACAGAAUAUTT against Pramel3 | inactive: 0.682 |
| GUGAGUAGGUAGGAAGCAUTT against Cd200r2 | active: -2.56 |
| CCUCUGGAUCUACGAGCUGTT against Odf4 | inactive: -0.00669 |
| GGUUUUCAGCUGCAUCAUGTT against Olfr303 | inactive: -0.0656 |
| GGUGGCAGACUGUGUUUAUTT against B3gnt8 | active: -2.08 |
| GGAUUGCCCUGUGGACAAGTT against Nr4a1 | inactive: 0.963 |
| GUGUGGCUCUUAUGUACCUTT against Olfr427 | inactive: 1.26 |
| GAAAUGUGGAAAGACACUGTT against Crip1 | inactive: 0.586 |
| GGCAAAGGAUAGUGGACAATT against Clic1 | inactive: 0.48 |
| GCACAUUUAACUUCAGUCATT against Tg | inactive: -0.207 |
| GGCAGGAAAACUGCCAAUGTT against Gm6034 | inactive: 1.36 |
| GCAUGUUUCUAAACUUAGUTT against Sh3rf2 | inactive: -0.432 |
| GCUACAGUGGGACUUAGGATT against Arhgef40 | inactive: -0.403 |
| GGGAGAGCGAGGAAGAUAATT against Sox9 | inactive: -0.205 |

Part of the list above, reformatted:
Sequence	z-score
GGAGGUUGGGAUGAAUUAUTT against Rab6b	active: 4.26
GAUUGGCAAUUGUGGCCAUTT against Defb4	inactive: 1.1
GCUAACUGAUACAUUAGAATT against Trim59	inactive: 0.972
GGUGCUGUCCAUGGUGAAGTT against St8sia5	inactive: -1.33
GGGCUUGUCUAGCCAUGCATT against Wiz	inactive: -1.13
GGAACUUUAUAGUUAGUGCTT against Srsf6	inactive: -0.176
GGCAGUUUUGGGAUUGUUUTT against E4f1	inactive: 0.627
GGACUUCAUAUUAGCAUGUTT against Plbd2	inactive: -1.27
CCCAAUACAUAUGUUAAGUTT against Syt14	inactive: 0.623
GAGAACUGCUACGACUCUGTT against Coro2a	inactive: 1.43
GGGAGAUUCUAUGAGGACUTT against Depdc5	inactive: -0.0963
CACGCAGAUGAUUAAGUUGTT against Olfr1000	inactive: 1.25
CCUUGCCAAGACAGAAUAUTT against Pramel3	inactive: 0.682
GUGAGUAGGUAGGAAGCAUTT against Cd200r2	active: -2.56
CCUCUGGAUCUACGAGCUGTT against Odf4	inactive: -0.00669
GGUUUUCAGCUGCAUCAUGTT against Olfr303	inactive: -0.0656
GGUGGCAGACUGUGUUUAUTT against B3gnt8	active: -2.08
GGAUUGCCCUGUGGACAAGTT against Nr4a1	inactive: 0.963
GUGUGGCUCUUAUGUACCUTT against Olfr427	inactive: 1.26
GAAAUGUGGAAAGACACUGTT against Crip1	inactive: 0.586
GCACAUUUAACUUCAGUCATT against Tg	inactive: -0.207
GGCAGGAAAACUGCCAAUGTT against Gm6034	inactive: 1.36
GCAUGUUUCUAAACUUAGUTT against Sh3rf2	inactive: -0.432
GCUACAGUGGGACUUAGGATT against Arhgef40	inactive: -0.403
GGGAGAGCGAGGAAGAUAATT against Sox9	inactive: -0.205

(next part)

| Sequence | z-score |
| --- | --- |
| GGACUUUGUGAUCUUUCCATT against Pias2 | inactive: -0.57 |
| GGAAACAGAACAGAUAUUUTT against Chd6 | inactive: 0.111 |
| GCUACUAACCAUCGGCUUCTT against 1700067K01Rik | inactive: 1.51 |
| GGCGACGUACCAUCACCUATT against Senp3 | inactive: 0.143 |
| GGAGGACCAUUGUAAGUAGTT against 9930022D16Rik | active: 2.17 |
| GGAGAAAAGGUGUUUCGACTT against Asap3 | inactive: -0.461 |
| UCUCAAAGACGAAUAUCAUTT against Olfr875 | inactive: -0.113 |
| GCACAUUGUCUAGUAGUAATT against Zfp280d | inactive: -0.622 |
| GGAGUACGACUACUACGGUTT against Sfrp5 | inactive: 0.83 |
| GCUGACUCAUACGAAAAACTT against Cdk14 | inactive: -0.535 |
| GGACUCAGCAACAGGUCUUTT against Olfr544 | inactive: -0.833 |
| GGUACGCAUUCCACAGUUCTT against Tbx10 | inactive: 1.31 |
| CGAGAUUGGAGUCAUGUUUTT against Adcy3 | inactive: 0.67 |
| GGAUAUGCAGUGGAACUAUTT against Heph | active: -2.13 |
| GGUACACCCUAGGAAAGAUTT against Pbxip1 | inactive: 0.721 |
| CCGUAGAAAUACCAUAGACTT against Cables1 | inactive: -0.137 |
| GGCAGUUAAUUUCUUUGGATT against Ica1 | inactive: 0.789 |
| GCUAUUAGGAAAUGAAAGATT against Ncald | inactive: 0.384 |
| CCCUCUUUUCGUUUUCUACTT against 1700129C05Rik | inactive: 0.321 |
| GGCAGGACAAAACACCAAATT against Hirip3 | inactive: -0.427 |
| CGGACAAGUGUUUUUCGUUTT against Wwox | inactive: 0.315 |
| GGGUUCUAUAGUCUCCACCTT against Hbq1b | inactive: -1.01 |

| Sequence | z-score |
| --- | --- |
| GGCACAGCAGUCUUGAGCUTT against Retn | inactive: 0.342 |
| GGAUUCAAAUGUUCAAAGGTT against Il27 | inactive: 0.313 |
| CCUACAUUCCAUUUUAAUGTT against Hydin | inactive: -0.971 |
| GGUGGAGAACUAUUACAGCTT against Myf5 | inactive: -0.144 |
| GGAUAACGUAAUGAAGAUCTT against Fgfr1 | inactive: -0.866 |
| GGAAUUUGAUUCUGAAGAATT against Gmnn | inactive: -0.874 |
| GCUAUGAACUCCACAUCUATT against Mov10 | inactive: -0.109 |
| CCUAAGACGUGGACUGGUGTT against Zfp563 | inactive: -0.176 |
| AGCCGAUCCUGUGCCUGUUTT against Dnph1 | inactive: 0.592 |
| CGCAGACAAGCAAGAAGUATT against Olfr735 | inactive: 0.0417 |
| GCGUGGAAGGUCUGAACACTT against Arfgap3 | active: 4.18 |
| GGUCUAUGAAGAGAAGACUTT against Mtres1 | inactive: 0.8 |
| GGUUAUCACAGAAGACUUATT against Clic6 | inactive: -0.116 |
| GCCGUUGGAUCCCAUAUCATT against Ccdc181 | inactive: 0.295 |
| UAUGACUCCACUCUUCUCUTT against Olfr1158 | active: -2 |
| GGACAGGACCAAAAGGACUTT against Klk4 | inactive: -1.94 |
| GGUAUGUUUUAUCUUGACATT against Olfr851 | inactive: 0.269 |
| GGUUUGGCCAUCUCCUAUGTT against Mfsd10 | inactive: -0.661 |
| GGACUCUGCUAGGAAGACATT against Fstl4 | inactive: 1.95 |
